No constants are given. Whether binding was seen depends on the method and setting. In cells and extracts the contact can be indirect. Some entries that bind do so weakly or less than the wild type. For part of these data: Tags and fused reporters may be left off the sequences shown.
Tests used:
Assay in all cases: co-IP
Flag-ASC (human) = Flag-ASC (human) (UniProt Q9ULZ3)
Flag-EIF3S5 (human) = Flag-EIF3S5 (human) (UniProt O00303)
Flag-P2X7(27-595) = biological target: T1, Flag-P2X7(27-595) (UniProt Q99572)
T1 sequence: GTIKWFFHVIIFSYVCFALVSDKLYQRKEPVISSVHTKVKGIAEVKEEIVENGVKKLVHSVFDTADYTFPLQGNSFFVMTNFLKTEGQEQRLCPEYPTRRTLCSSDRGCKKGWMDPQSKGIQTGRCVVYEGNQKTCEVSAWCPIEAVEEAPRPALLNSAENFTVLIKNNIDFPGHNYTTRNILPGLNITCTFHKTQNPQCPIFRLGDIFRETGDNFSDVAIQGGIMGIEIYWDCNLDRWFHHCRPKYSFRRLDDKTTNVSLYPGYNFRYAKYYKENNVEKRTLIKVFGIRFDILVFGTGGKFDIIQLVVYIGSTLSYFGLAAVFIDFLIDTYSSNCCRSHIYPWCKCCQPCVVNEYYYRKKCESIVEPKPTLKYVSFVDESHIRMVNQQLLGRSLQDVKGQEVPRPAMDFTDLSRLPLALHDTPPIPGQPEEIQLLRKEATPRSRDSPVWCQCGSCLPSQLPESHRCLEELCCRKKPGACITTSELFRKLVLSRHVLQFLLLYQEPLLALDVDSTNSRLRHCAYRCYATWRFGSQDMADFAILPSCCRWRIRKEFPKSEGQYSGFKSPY

Amino acid sequences for entries named in this document (tags omitted). A change or cut given only in a name is not applied to a line headed by its entry.
UniProt Q9ULZ3, whole entry: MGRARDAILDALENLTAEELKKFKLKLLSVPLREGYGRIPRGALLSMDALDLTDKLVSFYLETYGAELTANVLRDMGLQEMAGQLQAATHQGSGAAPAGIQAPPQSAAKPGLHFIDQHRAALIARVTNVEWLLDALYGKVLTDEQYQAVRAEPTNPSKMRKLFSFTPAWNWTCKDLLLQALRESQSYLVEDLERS
UniProt O00303, whole entry: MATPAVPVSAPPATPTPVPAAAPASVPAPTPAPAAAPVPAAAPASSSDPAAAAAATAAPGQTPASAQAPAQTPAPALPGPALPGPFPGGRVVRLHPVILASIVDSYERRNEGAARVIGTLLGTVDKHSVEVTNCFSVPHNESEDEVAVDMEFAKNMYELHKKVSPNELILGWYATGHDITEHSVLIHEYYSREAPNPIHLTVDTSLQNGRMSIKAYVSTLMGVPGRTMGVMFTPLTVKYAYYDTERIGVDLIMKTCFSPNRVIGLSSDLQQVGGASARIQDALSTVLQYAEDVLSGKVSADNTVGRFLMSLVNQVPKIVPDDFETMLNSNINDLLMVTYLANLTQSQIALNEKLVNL
UniProt P49023, whole entry: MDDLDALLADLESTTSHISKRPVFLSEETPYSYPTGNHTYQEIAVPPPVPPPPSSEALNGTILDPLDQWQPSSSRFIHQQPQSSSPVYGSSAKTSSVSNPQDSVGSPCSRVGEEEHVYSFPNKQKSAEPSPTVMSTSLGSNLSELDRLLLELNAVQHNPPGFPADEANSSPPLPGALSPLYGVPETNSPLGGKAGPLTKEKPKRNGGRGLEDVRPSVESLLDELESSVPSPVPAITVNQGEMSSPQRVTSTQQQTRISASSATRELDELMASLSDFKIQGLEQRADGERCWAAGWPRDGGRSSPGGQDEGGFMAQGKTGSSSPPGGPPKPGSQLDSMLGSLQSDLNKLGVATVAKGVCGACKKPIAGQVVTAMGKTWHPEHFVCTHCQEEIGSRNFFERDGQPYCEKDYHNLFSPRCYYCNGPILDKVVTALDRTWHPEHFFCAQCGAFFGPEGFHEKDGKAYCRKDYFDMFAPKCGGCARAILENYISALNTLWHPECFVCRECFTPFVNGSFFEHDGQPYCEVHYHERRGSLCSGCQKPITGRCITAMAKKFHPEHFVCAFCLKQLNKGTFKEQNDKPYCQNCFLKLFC

Flag-P2X7(30-595) = biological target: T2, Flag-P2X7(30-595) (UniProt Q99572)
T2 sequence: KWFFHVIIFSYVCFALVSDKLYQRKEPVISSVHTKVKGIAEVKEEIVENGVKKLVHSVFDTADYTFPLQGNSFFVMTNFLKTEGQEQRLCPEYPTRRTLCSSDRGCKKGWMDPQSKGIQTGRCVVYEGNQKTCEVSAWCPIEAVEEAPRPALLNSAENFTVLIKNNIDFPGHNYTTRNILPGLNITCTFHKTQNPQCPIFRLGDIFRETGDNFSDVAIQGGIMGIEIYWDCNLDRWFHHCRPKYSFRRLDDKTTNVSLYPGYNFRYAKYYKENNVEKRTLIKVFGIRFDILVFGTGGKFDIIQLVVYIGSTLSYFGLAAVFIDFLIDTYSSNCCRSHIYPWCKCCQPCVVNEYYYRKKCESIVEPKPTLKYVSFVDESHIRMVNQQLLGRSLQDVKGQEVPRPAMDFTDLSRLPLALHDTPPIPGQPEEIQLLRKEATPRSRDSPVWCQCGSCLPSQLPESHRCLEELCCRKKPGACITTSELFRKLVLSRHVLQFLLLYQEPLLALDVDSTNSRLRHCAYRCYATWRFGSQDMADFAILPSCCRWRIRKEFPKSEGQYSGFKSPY

Flag-P2X7(K30A) = biological target: T3, Flag-P2X7(K30A) (UniProt Q99572)
T3 sequence: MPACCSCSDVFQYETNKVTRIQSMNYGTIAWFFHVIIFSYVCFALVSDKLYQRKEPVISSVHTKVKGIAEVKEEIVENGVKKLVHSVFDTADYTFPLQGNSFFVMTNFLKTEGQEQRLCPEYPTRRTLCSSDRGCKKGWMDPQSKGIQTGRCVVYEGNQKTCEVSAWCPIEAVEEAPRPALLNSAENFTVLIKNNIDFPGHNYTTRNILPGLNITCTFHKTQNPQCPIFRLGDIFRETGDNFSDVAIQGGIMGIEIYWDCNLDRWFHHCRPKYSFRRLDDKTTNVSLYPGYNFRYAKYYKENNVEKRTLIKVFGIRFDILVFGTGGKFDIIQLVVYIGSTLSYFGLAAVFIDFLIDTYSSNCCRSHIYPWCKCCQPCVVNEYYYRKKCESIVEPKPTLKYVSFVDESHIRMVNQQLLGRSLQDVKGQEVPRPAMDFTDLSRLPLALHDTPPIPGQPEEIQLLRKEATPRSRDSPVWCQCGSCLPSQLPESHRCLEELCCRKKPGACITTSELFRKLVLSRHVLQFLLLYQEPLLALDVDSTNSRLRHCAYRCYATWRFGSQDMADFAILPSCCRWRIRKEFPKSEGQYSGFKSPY

[1] = biological target: T4, Flag-UPS13(625-863) (human) (UniProt Q92995)
T4 sequence: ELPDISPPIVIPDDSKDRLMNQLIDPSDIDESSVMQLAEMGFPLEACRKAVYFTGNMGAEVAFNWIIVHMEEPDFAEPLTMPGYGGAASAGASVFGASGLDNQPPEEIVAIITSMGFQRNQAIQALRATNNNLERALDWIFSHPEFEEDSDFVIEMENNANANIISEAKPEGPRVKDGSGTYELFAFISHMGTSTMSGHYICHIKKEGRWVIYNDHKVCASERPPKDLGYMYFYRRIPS

With HA-Paxillin (from UniProt P49023 1-591) the binding (Flag-ASC (human)) was “no binding”, the binding (Flag-EIF3S5 (human)) was “binds” and the binding (Flag-P2X7(27-595)) was “binds”. For the same substance, the binding (Flag-P2X7(30-595)) was “binds”, the binding (Flag-P2X7(K30A)) was “no binding” and the binding [1] was “no binding”.
